Reference: publication PMC11237615
These are yes or no findings as the source states them, for the method shown. Binding seen in cells or lysates may run through a third protein. Some results given as binding are weak or reduced against the parent protein; the word gives no strength.

Protein sequences, listed by entry. Tags and fused reporters are not part of them. Lines headed by an entry give the natural chain unless they say otherwise; changes in a name come on top.
UniProt P19474: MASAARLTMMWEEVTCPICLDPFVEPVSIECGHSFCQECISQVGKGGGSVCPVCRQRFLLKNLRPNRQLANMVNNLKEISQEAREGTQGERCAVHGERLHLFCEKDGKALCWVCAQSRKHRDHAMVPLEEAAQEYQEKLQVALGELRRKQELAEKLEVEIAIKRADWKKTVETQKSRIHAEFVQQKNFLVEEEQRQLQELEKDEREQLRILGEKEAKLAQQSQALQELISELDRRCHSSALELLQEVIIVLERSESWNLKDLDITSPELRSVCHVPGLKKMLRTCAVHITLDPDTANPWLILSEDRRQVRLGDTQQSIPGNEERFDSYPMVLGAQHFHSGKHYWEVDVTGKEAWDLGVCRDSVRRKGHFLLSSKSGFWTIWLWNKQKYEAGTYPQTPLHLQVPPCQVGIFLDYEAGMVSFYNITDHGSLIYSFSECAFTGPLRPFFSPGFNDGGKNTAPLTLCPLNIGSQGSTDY

Molecular target: T1, hepatocyte nuclear factor 4α (human (endogenous in HepG2)) (UniProt P41235)
T1 sequence: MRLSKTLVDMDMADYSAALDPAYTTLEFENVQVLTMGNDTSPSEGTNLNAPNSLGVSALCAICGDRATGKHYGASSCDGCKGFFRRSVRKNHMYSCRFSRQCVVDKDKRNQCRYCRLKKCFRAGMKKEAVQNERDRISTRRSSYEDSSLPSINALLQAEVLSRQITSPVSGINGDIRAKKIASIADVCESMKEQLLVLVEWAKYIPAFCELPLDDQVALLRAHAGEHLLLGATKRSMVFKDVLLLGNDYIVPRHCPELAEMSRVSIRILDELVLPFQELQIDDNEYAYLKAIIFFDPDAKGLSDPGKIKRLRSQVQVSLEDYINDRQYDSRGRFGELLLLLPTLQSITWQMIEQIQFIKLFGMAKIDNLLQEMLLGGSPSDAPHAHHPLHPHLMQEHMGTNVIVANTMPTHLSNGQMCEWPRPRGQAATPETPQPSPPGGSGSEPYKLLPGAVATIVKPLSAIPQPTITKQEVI
Assay: co-IP; HepG2 cells transfected with the Myc-TRIM21 constructs (Fig. 6A: with pUb-HA, MG132 20 µM for 5 h before harvest); Pierce IP lysis buffer; lysates incubated with the HNF4α antibody at 4°C overnight, protein A-agarose, three washes with cold PBS; Western blot

binding	Substance
binds	Myc-TRIM21 (tripartite motif-containing protein 21, wild type) (from UniProt P19474 1-475) (enzyme)
no binding	Myc-TRIM21 PRY-SPRY deletion mutant (from UniProt P19474 2-285) (domain or fragment)
binds	Myc-TRIM21 RING domain deletion mutant (from UniProt P19474 57-475) (domain or fragment)
